{"sequences": {"note": "By UniProt entry, the sequences of proteins in these tests, tags left out. Residues count along the entry.", "UniProt P69905, residues 2-142": "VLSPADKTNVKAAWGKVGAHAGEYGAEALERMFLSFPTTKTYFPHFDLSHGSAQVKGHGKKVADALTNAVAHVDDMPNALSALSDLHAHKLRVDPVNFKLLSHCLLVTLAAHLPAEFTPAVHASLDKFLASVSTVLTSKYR"}, "source": "patent US20180022779A1", "binders": {"B1": {"name": "human CytB5R3 (endogenous, vascular cell co-culture and human coronary ECs) (enzyme, UniProt P00387 2-301, looked up)", "chain": "GAQLSTLGHMVLFPVWFLYSLLMKLFQRSTPAITLESPDIKYPLRLIDREIISHDTRRFRFALPSPQHILGLPVGQHIYLSARIDGNLVVRPYTPISSDDDKGFVDLVIKVYFKDTHPKFPAGGKMSQYLESMQIGDTIEFRGPSGLLVYQGKGKFAIRPDKKSNPIIRTVKSVGMIAGGTGITPMLQVIRAIMKDPDDHTVCHLLFANQTEKDILLRPELEELRNKHSARFKLWYTLDRAPEAWDYGQGFVNEEMIRDHLPPPEEEPLVLMCGPPPMIQYACLPNLDHVGHPTERCFVF"}}, "molecular_target": "human Hb α (endogenous, vascular cell co-culture of human coronary ECs and SMCs) (human) (UniProt P69905)", "test": "co-immunoprecipitation (IP Hb α, blot CytB5R3) from VCCC lysates", "note": "These are yes or no findings as the source states them, for the method shown. In cells and extracts the contact can be indirect. Some entries that bind do so weakly or less than the wild type."}
{"binder": "B1", "values": [{"measurement": "binding", "result": "binds"}]}
